Results as given in the supplement of paper PMC4604168 (melanoma cell lines).
The list shows a part of the results. Single values are uncertain, as repeats are few or missing.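 Cells were imaged in 1,536-well plates, and nuclei stained with an antibody against cleaved PARP were counted against all DNA-stained nuclei to give the apoptosis fraction. Screening doses were chosen to leave most cells alive, and resting and induced cleaved-PARP levels differ strongly between cell lines.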

System: UACC257
Experiment: cleaved PARP positive nuclei fraction relative to DMSO control; melanoma cells; higher = more apoptosis
Details: library dose: low library concentration; 72 h

Structure (SMILES)	cleaved PARP positive nuclei fraction [%]
N.N.[Cl][Pt][Cl] [cisplatin] + CO[C@@H]1[C@H](N(C)C(=O)c2ccccc2)C[C@H]2O[C@]1(C)n1c3ccccc3c3c4c(c5c6ccccc6n2c5c31)C(=O)NC4 [Midostaurin] (first compound 1.6 µM, partner dose 0.08 µM)	87.2
CCN(CC)CCNC(=O)c1c(C)[nH]c(/C=C2\C(=O)Nc3ccc(F)cc32)c1C [sunitinib] + O=C(Oc1ccc([N+](=O)[O-])cc1)N1CCC(C(O)(c2ccc3c(c2)OCO3)c2ccc3c(c2)OCO3)CC1 [JZL184] (first compound 0.4 µM, partner dose 1 µM)	135
N.N.[Cl][Pt][Cl] [cisplatin] + Oc1cc(-c2nc(-c3ccccc3)[nH]c2-c2ccncc2)ccc1Cl [L779450] (first compound 1.6 µM, partner dose 0.2 µM)	146
Clc1ccc(Nc2nnc(Cc3ccncc3)c3ccccc23)cc1 [vatalanib] + O=C(Oc1ccc([N+](=O)[O-])cc1)N1CCC(C(O)(c2ccc3c(c2)OCO3)c2ccc3c(c2)OCO3)CC1 [JZL184] (first compound 2 µM, partner dose 1 µM)	230
C[As](C)SC[C@H](NC(=O)CC[C@H](N)C(=O)O)C(=O)NCC(=O)O [Darinaparsin] + OCCn1cc(-c2cnc3nnn(Cc4ccc5ncccc5c4)c3n2)cn1 [PF04217903] (first compound 0.4 µM, partner dose 1 µM)	92.2
C[C@@H](N)c1ccc(C(=O)Nc2ccnc3[nH]ccc23)cc1 + Cc1cc(SCc2sc(-c3ccc(C(F)(F)F)c(F)c3)nc2C)ccc1OCC(=O)O [GW0742] (first compound 0.4 µM, partner dose 2 µM)	180
N.N.[Cl][Pt][Cl] [cisplatin] + Cn1cncc1[C@@](N)(c1ccc(Cl)cc1)c1ccc2c(c1)c(-c1cccc(Cl)c1)cc(=O)n2C [tipifarnib] (first compound 1.6 µM, partner dose 0.01 µM)	67.2

2 entries from above, field by field:
Clc1ccc(Nc2nnc(Cc3ccncc3)c3ccccc23)cc1 [vatalanib] + O=C(Oc1ccc([N+](=O)[O-])cc1)N1CCC(C(O)(c2ccc3c(c2)OCO3)c2ccc3c(c2)OCO3)CC1 [JZL184] (first compound 2 µM, partner dose 1 µM)
  cleaved PARP positive nuclei fraction [%]: 230
C[C@@H](N)c1ccc(C(=O)Nc2ccnc3[nH]ccc23)cc1 + Cc1cc(SCc2sc(-c3ccc(C(F)(F)F)c(F)c3)nc2C)ccc1OCC(=O)O [GW0742] (first compound 0.4 µM, partner dose 2 µM)
  cleaved PARP positive nuclei fraction [%]: 180

System: UACC62
Experiment: as above
Details: library dose: low library concentration; 72 h

Structure (SMILES)	cleaved PARP positive nuclei fraction [%]
NC1(c2ccc(-c3nc4ccn5c(=O)[nH]nc5c4cc3-c3ccccc3)cc2)CCC1 + O=C(Oc1ccc([N+](=O)[O-])cc1)N1CCC(C(O)(c2ccc3c(c2)OCO3)c2ccc3c(c2)OCO3)CC1 [JZL184] (first compound 0.4 µM, partner dose 1 µM)	173
COc1ccc(C2=N[C@@H](c3ccc(Cl)cc3)[C@@H](c3ccc(Cl)cc3)N2C(=O)N2CCNC(=O)C2)c(OC(C)C)c1 [Nutlin-3] + C/C(O)=C(\C#N)C(=O)Nc1cc(Br)ccc1Br [LFM-A13] (first compound 0.1 µM, partner dose 2 µM)	241
O=C(/C=C/c1cccnc1)NCCCCC1CCN(C(=O)c2ccccc2)CC1 + Cc1cc(SCc2sc(-c3ccc(C(F)(F)F)c(F)c3)nc2C)ccc1OCC(=O)O [GW0742] (first compound 0.01 µM, partner dose 2 µM)	105
C[As](C)SC[C@H](NC(=O)CC[C@H](N)C(=O)O)C(=O)NCC(=O)O [Darinaparsin] + NC(=O)Nc1cc(-c2cccc(F)c2)sc1C(=O)N[C@H]1CCCNC1 [AZD7762] (first compound 0.4 µM, partner dose 0.02 µM)	36
C[As](C)SC[C@H](NC(=O)CC[C@H](N)C(=O)O)C(=O)NCC(=O)O [Darinaparsin] + C[C@@H]1CCN(C(=O)CC#N)C[C@@H]1N(C)c1ncnc2[nH]ccc12 [CP690550] (first compound 0.4 µM, partner dose 1 µM)	78.6
C[C@]1(O)C[C@@H](c2nc(-c3ccc4ccc(-c5ccccc5)nc4c3)c3c(N)nccn32)C1 + C/C(O)=C(\C#N)C(=O)Nc1cc(Br)ccc1Br [LFM-A13] (first compound 0.4 µM, partner dose 2 µM)	251
N.N.[Cl][Pt][Cl] [cisplatin] + Cc1cc([N+](=O)[O-])ccc1NS(=O)(=O)c1cc(Cl)ccc1Cl [FH535] (first compound 1.6 µM, partner dose 1 µM)	141
Cn1cc(C2=C(c3cn(C4CCN(Cc5ccccn5)CC4)c4ccccc34)C(=O)NC2=O)c2ccccc21 [Enzastaurin] + O=C1NC(=O)/C(=C/c2ccc(-c3ccc(F)cc3O)o2)S1 [AS252424] (first compound 0.8 µM, partner dose 1 µM)	89.5
